## Assay results

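Luminescence from an EWS-FLI1 target-promoter (NR0B1) reporter, set against a CMV-promoter reporter, two days after silencing single genes in TC32 Ewing sarcoma cells. Each siRNA was applied at 20 nM. A z-score of the log NR0B1-over-CMV signal, less the median of siRNAs with the same seed; more negative means a stronger specific loss of the NR0B1 reporter.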

The strongest results of the screen are mostly left out here. Sequences are the guide (antisense) strand, without overhang.

For UUUUCUACUGGAUUCGACC against TERF2 the result was seed-corrected z-score -0.4161. Result for UUCUUCUCUCCCUCGGUUC against PRCC was seed-corrected z-score 0.4009. With UCUAGAUCAACUGCAACUG against TEX11 the assay gave seed-corrected z-score 0.006315. UGAUCUUGCAGUUACAACC against TIMP3 read seed-corrected z-score -2.

Result for UGAAUUCCCUUAGAAGUUG against HPGD was seed-corrected z-score 1.122. With UUCCCUAUCAGUGGUAAGG against SPAG17 the assay gave seed-corrected z-score 0.02796. For UUGCUUAGAGUUCUCAUCU against CHRM2 the result was seed-corrected z-score -0.7573. UGAGCAGUCGAAGUCAGGC against GFER read seed-corrected z-score -0.1244.

With UUCAGUCAAAGCAUCAGUC against NPTX2 the assay gave seed-corrected z-score 0.09171. UAUUAUCAUAGGUCUCUCU against KDM4D read seed-corrected z-score 0.8088. Result for UUCGCAAUAAACAUGAUGC against ABCB11 was seed-corrected z-score 0.7023. AGAGUUUACAUACCGAGGC against SYNDIG1L gave seed-corrected z-score 0.9038.

Result for UAAGGAUAAGGAAGCGGGA against CDK5R2 was seed-corrected z-score 0.8969. AGACCUUAAAGAUUCGAUC against AGO1 gave seed-corrected z-score 0.1889. UUAUGUAUAGUGUCCAACC against SLC39A1 read seed-corrected z-score -0.2541. UCAUCUAUCACUUUUCCUC against TM4SF4 gave seed-corrected z-score 1.044.

UCAGAUGAAACAUCUUUGG against PCDHGA7 read seed-corrected z-score -0.01645. With GGGAGACAAAGUGAUCUCC against TPSG1 the assay gave seed-corrected z-score 0.316. UAUUAGAUAGUCCAAUAAC against PHLDA2 gave seed-corrected z-score 1.416. AAUGAUAGCACAGCAGCCG against SLC6A1 gave seed-corrected z-score -1.229.

For AAAGUAGAAGGUGUAGUGG against PAQR8 the result was seed-corrected z-score -0.1599. With UCAGACUCCAGUGAUACCC against NDUFA1 the assay gave seed-corrected z-score 0.307. For UAGGGUUCAAUGCAUGGGC against ZSWIM8 the result was seed-corrected z-score 1.4. UGCCGAUGAACAUCUGUAG against NFATC4 read seed-corrected z-score -0.8089.

UUCCUGUCUGGUAAGAUAC against ERICH1-AS1 gave seed-corrected z-score 1.263. For UAACGUGUAACAGGAAGGG against UNKL the result was seed-corrected z-score -1.071. Result for UUGCGUAAAAAUUAAGCUG against IPMK was seed-corrected z-score 0.8993. Result for UAAGAUUAACUCCAGCACC against TP53I3 was seed-corrected z-score -0.2745.

For UCAGGAUUAUGCGAUGUUC against ORC1 the result was seed-corrected z-score 0.2693. Result for UUUUCUCCAAGUCUUGCCG against CDPF1 was seed-corrected z-score 0.3734. UCUGUUUCUGAGGUGCCCU against CD40 gave seed-corrected z-score -1.15. With UUCGAUUUACCCAUGAUUC against SERINC3 the assay gave seed-corrected z-score 0.09209.

Result for UCCUGGAUAACAAUGUCGG against RPL9P11 was seed-corrected z-score 0.5228. For UUUACGGACCGUCUUAUCC against MYO5A the result was seed-corrected z-score -0.07524. For AGACCUAUCAGAUCGGAUG against EFEMP1 the result was seed-corrected z-score 0.3607. With AAACUGUUCACUGAAGACC against ZNF562 the assay gave seed-corrected z-score -0.1434.

With UGAGGUCCAACAGUCCUUC against SYTL1 the assay gave seed-corrected z-score 1.156. With AUAAAUACACGGUUUAUUU against ING1 the assay gave seed-corrected z-score 0.499. UAAGGACGAGGGCAGGUUC against CCDC157 gave seed-corrected z-score 0.1964.

Some entries from above, unchanged:

Sequence,gene,seed-corrected z-score
UGAGCAGUCGAAGUCAGGC,GFER,-0.1244
UUGCUUAGAGUUCUCAUCU,CHRM2,-0.7573
UCCUGGAUAACAAUGUCGG,RPL9P11,0.5228
UAUUAUCAUAGGUCUCUCU,KDM4D,0.8088

Source: PubChem BioAssay AID1159506 (NCATS, 2015).